Data published in patent publication US10259781B2, “Imaging agents” (THE REGENTS OF THE UNIVERSITY OF MICHIGAN, priority 2012, dated 2019).
At least one compound was matched to its structure with a doubt left.

Test system: cardiac sympathetic neurons
Experiment: Isolated working rat heart model: neuronal uptake and clearance kinetics
Experimental: The radiotracer was infused into the heart for 10 minutes to measure the tracer uptake rate into cardiac sympathetic neurons (Kup, shown in units of ml/min/g tissue wet). Then, the heart was infused with normal heart perfusate to measure the tracer clearance rate from the heart over 2 hours.
Experiments were conducted to test ^11C-phenoxyethylguanidine (PEG), e.g., to establish baseline values for the NET transport rate (Kup, expressed in units of mL perfusate/min/g wet) and the clearance rate from sympathetic neurons (T1/2, expressed in units of hours).

Structure (SMILES) | clearance rate from sympathetic neurons, major half-time (T1/2) [h]
N=[11C](N)NCCOc1ccc(O)c(F)c1 [^11C-3F-PHPEG, ^11C-3-fluoro-para-hydroxy-phenoxyethylguanidine] | 16.9
N=C(N)NCCc1ccc(F)c(O)c1 [[^18F]4F-MHPG] [4-[^18F]fluoro-meta-hydroxy-phenethylguanidine] | > 24
